Measured values as given in US20240041922A1, “METHODS AND COMPOSITIONS” (Monash University, priority 2020, published 2024).
No constants are given. Whether binding was seen depends on the method and setting. Some entries that bind do so weakly or less than the wild type.

Protein sequences, listed by entry. Tags and fused reporters are not part of them.
UniProt P51682: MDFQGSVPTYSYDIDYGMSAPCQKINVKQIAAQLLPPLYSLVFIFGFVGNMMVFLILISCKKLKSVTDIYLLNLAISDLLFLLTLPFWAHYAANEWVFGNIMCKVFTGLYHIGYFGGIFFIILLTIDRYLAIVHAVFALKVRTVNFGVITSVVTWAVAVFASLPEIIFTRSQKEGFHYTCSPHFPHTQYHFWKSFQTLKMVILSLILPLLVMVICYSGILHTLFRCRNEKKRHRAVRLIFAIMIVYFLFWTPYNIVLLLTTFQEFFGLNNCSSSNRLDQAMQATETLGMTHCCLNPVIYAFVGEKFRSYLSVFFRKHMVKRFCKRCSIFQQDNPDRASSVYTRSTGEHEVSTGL

Target: recombinant mouse CCR5 (MyBioSource) (mouse) (UniProt P51682)
Assay: competition ELISA: plate coated with mrCCR5, mrCCL4 titrated against 100 nM hrNAMPT(1); bound hrNAMPT(1) detected with a biotinylated anti-NAMPT antibody, BSA deducted

- binding: binds
B1: recombinant murine CCL4/MIP-1beta (PeproTech) (ligand, mouse, UniProt P14097 24-92, looked up)
chain: APMGSDPPTSCCFSYTSRQLHRSFVMDYYETSSLCSKPAVVFLTKRGRQICANPSEPWVTEYMSDLELN
